Measurements from the supplement of paper PMC4635364.
Counter-ions that a name gives are not always drawn. This is one part of the list. Repeats in this data set agree poorly, so a single value says little.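 ReNCell VM, a human fetal ventral-midbrain neural progenitor line, was differentiated without mitogens. Blinded raters scored images stained for doublecortin (early neurons) or tyrosine hydroxylase (dopaminergic neurons) against untreated wells (0 = no change). Scores were averaged across repeats and both raters, and compounds averaging 2 or more were selected as hits for retesting.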

system: ReNCell VM; test: neuronal differentiation score (DCX+ cell fraction vs untreated, manual image score) (score (-3 to 3)); higher = more neuronal differentiation; details: library: LOPAC; 2 uM; 2 weeks

SMILES | neuronal differentiation score
O=Nc1ccc2oc(=O)ccc2c1 [6-Nitroso-1,2-benzopyrone] | active: 2
NC(Cc1cccc(-c2ccccc2CP(=O)(O)O)c1)C(=O)O (stereo not drawn) [Phenylbenzene-omega-phosphono-alpha-amino acid] | inactive: 0
NC[C@@H](O)c1ccc(O)c(O)c1 [L(-)-Norepinephrine bitartrate] | inactive: 0
N[C@@H](Cc1c[nH]cn1)C(=O)O [L-Histidine hydrochloride] | inactive: 0
O=C(Cc1ccc(Cl)c(Cl)c1)OCCN1CCCC1 [AC 915 oxalate] | inactive: 0
CN1CCN(CC/C=C2/c3ccccc3Sc3ccc(S(=O)(=O)N(C)C)cc32)CC1 [Thiothixene hydrochloride] | inactive: 0
CCN(c1nc(N)c(C(=O)NC(=N)N)nc1Cl)C(C)C [5-(N-Ethyl-N-isopropyl)amiloride] | active: 2
COc1ccccc1N1CCN(CCN(C(=O)c2ccc(I)cc2)c2ccccn2)CC1 [p-MPPI hydrochloride] | inactive: 0
C[N+](C)(C)CCCCCC[N+](C)(C)C [Hexamethonium dichloride] | inactive: 0

Quoted from the listing.
COc1ccccc1N1CCN(CCN(C(=O)c2ccc(I)cc2)c2ccccn2)CC1 [p-MPPI hydrochloride] – neuronal differentiation score: inactive: 0
NC[C@@H](O)c1ccc(O)c(O)c1 [L(-)-Norepinephrine bitartrate] – neuronal differentiation score: inactive: 0
